In PubChem BioAssay AID1347426 (Functional Genomics Laboratory (NCATS/FGL), 2020):
Among all 31,000 sequences or so, about 1,400 (4.5%) were called active.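 The calls were made as follows: active = median seed-adjusted z-score above 1 or below -1; inactive = the rest.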 The list shows a part of the results.

Assay: Novel Modifiers of Survival Motor Neuron (SMN) Protein: Gene Identification via Genome-wide siRNA Screen;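 also: luminescence tracks full-length SMN protein made from the SMN2 reporter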
Details: HEK293T SMN2-luciferase reporter, siRNA knockdown, 72 h; actives lie on both sides
Method in brief: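 Each of three siRNAs per gene is reverse-transfected (1 pmol) into reporter HEK293T cells whose luciferase output tracks SMN protein level. After 72 h culture, ONE-Glo luminescence is control-normalized, log10-transformed and MAD-standardized; Common Seed Analysis deprioritizes seed-driven hits.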

Sequence	median seed-adjusted z-score
GCCUAUGACCCAAAUUAUATT against PPTC7	inactive: 0.49
CCGUGGGUCUCUAACUUCATT against SEMA5B	inactive: 0.641
CAAUCUUCGUGUUCACUUUTT against RPL17	inactive: -0.13
GGAUGACUACAUCAUUAGATT against OFD1	inactive: 0
CGGUGAAAGCGAAUUCCUATT against CD40	inactive: 0.275
GGCUUUGCGCUGCAAAUCCTT against LYPD1	inactive: -0.0713
GGAGGACAGUGCUUCAAGATT against FGD5	inactive: -0.0561
GGAUAUGGGUGGGAGCGAATT against NFKBIL1	inactive: 0.282
CCUGAAUCGUGUGCACUUATT against SSBP1	inactive: -0.456
GGAAGGAGCUGUCACGCAATT against MED26	active: -1.86
CGAUUUUAUCUGUCAGAAUTT against FBLN1	inactive: 0.518
GGUUCAGCUUUGGGUCAAATT against NUP214	inactive: 0.074
GUCCUGAAGUCACUCCGAUTT against FUT10	inactive: -0.629
UUUUUGAUGUGGACUCAAATT against USP18	inactive: -0.326
AAGACUCGAGAGUACAAAATT against SLC25A11	inactive: -0.731
CAACAACCGCUGGAGCUUATT against STAT2	inactive: 0
GCAUCGUUGAGAAUCCACATT against GMPPA	inactive: 0.619
UGACCAUGCUGAUAAACUGTT against IFNA1	inactive: -0.625
CCUCACGUGUGGGACCUUUTT against LIMK1	inactive: -0.428
AGUUUGUCGUGGUUAUAAATT against DYNLL1	inactive: 0
GCUAAGAAAAGGUACUGAUTT against GBP2	inactive: -0.263
GCCGACGAAUGUUAAUGAATT against FAM98B	inactive: -0.0162

Sequence	median seed-adjusted z-score
GCAUGGAUCUGAUCCGUUUTT against TAOK3	inactive: -0.594
GGAUCGAUCCAGCUUACAATT against ACACB	inactive: 0.31
AGGUUUAUGUGACCAAGCATT against KCTD8	inactive: 0.0212
CAGAGGAUUUGGAAUCGUUTT against CYP2C19	inactive: -0.0674
CUGUUUAACUGUGAGAUCATT against ANP32E	inactive: -0.0648
CGACUUCUAGAUGCAGUUATT against GMDS	inactive: 0
CUGAGAUACUGCAAGCUGATT against IL5RA	inactive: -0.357
UCUCUACAACAAAAUUUAATT against POLR2L	active: -1.19
CAGAACACCUGAACUCAAATT against ZDHHC9	inactive: -0.495
ACAUCUACGUGCUCAACCATT against B4GALT7	inactive: -0.00294
GGAUCCAUCUUAUCAGGCATT against FMO4	inactive: -0.359
AGACAUAUGCUUUUCCAUUTT against HTR3B	inactive: 0.153
CUACCAUGCUUGCUAUACATT against ERCC4	inactive: -0.00878
GCAUAGUACGAAAUUGGGATT against ACTR2	inactive: 0.548
CCCUCAAUUUGGUCUGUUUTT against SPINK2	inactive: -0.431
CUAUAUUCGUGUUCUUGUUTT against SEMA6C	inactive: 0.321
CAGUGGGAGCAGUUAAAUATT against SERPIND1	inactive: 0.133
GCAUUUAUCAUAGAGAGAATT against ZNF254	inactive: 0.088
GAGUGGACAUUCUAAUCAATT against RDH13	inactive: 0.208
GGAUAUUUACCAAAGGAGATT against NXF3	inactive: 0.672
GGAUAUCCAGUGAUCGUUATT against IL12RB1	inactive: -0.126
AAACAUUCCCUGAUAAGUATT against GPR176	inactive: 0.0782

Sequence	median seed-adjusted z-score
GGCUUACGGUUAUUCCAGATT against DGKD	inactive: 0.35
ACCAGGUGCUCUCCAAUAATT against PADI3	inactive: 0.147
GGAUAUGAGUUACAUGACATT against GALNT5	inactive: -0.279
GAGUUUGCCUUGUUAAUCUTT against REG1A	inactive: 0.596
GGAUCUGAUUCAUUGCUCATT against CNOT7	inactive: 0.716
CAUCUUCACGCUGACCGUCTT against UTS2R	inactive: 0.0819
CUAGCACGCUGCUCACUGATT against NAGS	inactive: 0.0484
GGAAACCGCAAGAACCUAATT against THAP3	inactive: 0.269
GGAUCCCUUUUGCAAGAUATT against EIF2AK4	inactive: -0.188
GAUUGCGUCUGGAGACUUATT against RNF148	inactive: 0.552
UCAACAUCCUCAAAGGGUATT against GGT1	inactive: -0.0421
CCUUUGACCAGAUCCAUGATT against STX17	inactive: 0.00965
CUCACCUACUGGAACCUGATT against ZBED4	inactive: -0.553
GACUCAGAACGACAACCAATT against KIF4B	inactive: -0.0753
AGCGGUCAAGAAUCCAGAATT against ZNF673	inactive: 0.419
CGACUCUUCACGUCAUUUATT against FA2H	inactive: 0.0497
GCAUCAAAGUGCGGAUACATT against RAB15	inactive: -0.616
GGAGUCAGGUGAUAAUGGATT against TGFBR3	inactive: 0.285
GAGAUGCUGUGAGUAGGUATT against TTC9C	inactive: -0.571
CGGCCUUACUUUUUCAUCUTT against TRIM58	inactive: -0.582
GCCUAUCACAGAUGAACAATT against ADSL	inactive: 0
GCAUCUUUACAGACCAGUUTT against BCL6	inactive: -0.352

Some values from the results shown:
For median seed-adjusted z-score, CUAGCACGCUGCUCACUGATT against NAGS shows inactive: 0.0484
For median seed-adjusted z-score, GGAGUCAGGUGAUAAUGGATT against TGFBR3 shows inactive: 0.285
For median seed-adjusted z-score, CUCACCUACUGGAACCUGATT against ZBED4 shows inactive: -0.553

Carrying on.

Sequence	median seed-adjusted z-score
CCAUAAGACCCAAAACAGATT against SKI	inactive: -0.139
GGUUCACGUUUACAGAGCATT against B3GAT1	inactive: 0.503
ACAUAGAAAAUGCCUGCUATT against CDA	inactive: 0.471
GCUCAUCAACAAGGAGAAATT against SIRT2	inactive: 0.727
GAAUAAGUAUCGGACUCUATT against BTN3A1	inactive: -0.198
CCCUGAGGCUUGUUACAUUTT against PBK	inactive: -0.311
GGCCGAGUCUAAAGACCAATT against ALDH8A1	inactive: 0.0628
GCUCGUAUCUUACUUAGGATT against VCL	inactive: 0
CCAAUCUCAUAGAACUUGATT against ARRB1	inactive: -0.205
GAAGCAGGUCGAGCACAUATT against PRKACG	inactive: 0
CAUCGGUGCCCAGAAGUCATT against SSBP4	inactive: 0.254
GCAAUGUCCGGAUCUCUGATT against GRK1	inactive: 0.0807
CAUCCACUCUGGUGACAAATT against ZNF513	inactive: -0.0616
CACACAUCAUGUUAGUCCUTT against GTF2H2	inactive: -0.00624
UGUCUUCUCGGACAAAGUATT against CLDN10	inactive: 0.0399
CAAUUUGCCCUAUCUUACATT against HSPA9	inactive: 0.622
GCUCAUCUCUUACUUACCATT against ZFP37	inactive: -0.305
CGACAUUGCCCUGCUCAAATT against ELA2B	inactive: -0.154
ACCUGCGGGUGUUAUCAAATT against SLC25A38	inactive: 0
GGGAAGAACUGGAUGUUCATT against CHERP	inactive: 0.155
GCAUCUUCGACACCAACUATT against CPN2	inactive: 0.0491
CCUUUUAGGAGGUAGUGUATT against OCLN	inactive: 0.232

Sequence	median seed-adjusted z-score
GGCUGAGGAUAAUAGAGUUTT against GLYATL1	inactive: 0.0148
GGAGAAUCUUUUAGCUGAATT against TUSC3	inactive: 0.138
GGGUCGUUACGUUAGGAUUTT against TRIM23	inactive: -0.318
GGGCAGAACUCUUUGAGAATT against POLL	inactive: -0.334
GGAUGACGGUGUCUACUCATT against CLCA1	inactive: 0.015
UCAAGGCCCUGUGCGCUAATT against PPP4C	active: 1.15
GGAGAGCAUUCAAACAGUUTT against IL24	inactive: -0.125
CGUGUUUAUAAUUACCGAATT against MED14	active: -3.22
GGUGAACGACGUGACCUCUTT against CDX4	inactive: 0.181
CCCAGAUUUUAGUACAGUUTT against PEX3	inactive: 0.142
GAUUAUCACAACUAUCAAATT against NUFIP1	inactive: -0.673
GGUCCAGUGUGGUUCUCUATT against HMX3	inactive: 0.238
ACCUAAUUGAUUUCCGGGATT against GGT7	inactive: 0.135
CCUCGGCAGUGAAACCACATT against SERPINA13	inactive: -0.403
AGCUCAUGGCCUACUGGUATT against ADRA2C	inactive: 0
CCACAAAUGUAGUAGAACATT against DYNLT1	inactive: 0.764
CGGUCGGUCCUUUACAACATT against ZNF143	inactive: -0.357
AGACCGUCACCUCCUUUUATT against BCKDK	inactive: 0
CGGCAAAGAUCAUCCAUAUTT against SMYD2	inactive: -0.393
GCCUUUCAGUCAUCGCGCATT against PLXND1	inactive: -0.064
